Source: PubChem BioAssay AID1469 (National Center for Advancing Translational Sciences (NCATS), 2008)
Several values for one entry are separate records, joined by “and”; a condition that tells them apart may be missing. Equal entries are not always repeated. In all, about 280,000 compounds went through this assay and about 180 (0.064%) were called active. Inconclusive results, whose numbers are uncertain, are shown with a selection of clear calls. The call rests on the fitted dose curve; in most records, active means well fitted inhibition curve with a large enough effect; inconclusive means small, poorly fitted or top-dose-only effect, or effect the other way; inactive means flat fitted curve, though single readings scatter. Where the call is inconclusive, the potency comes from a doubtful curve fit.

Amino acid sequences for entries named in this document (tags omitted). A change or cut given only in a name is not applied to a line headed by its entry.
UniProt P10828: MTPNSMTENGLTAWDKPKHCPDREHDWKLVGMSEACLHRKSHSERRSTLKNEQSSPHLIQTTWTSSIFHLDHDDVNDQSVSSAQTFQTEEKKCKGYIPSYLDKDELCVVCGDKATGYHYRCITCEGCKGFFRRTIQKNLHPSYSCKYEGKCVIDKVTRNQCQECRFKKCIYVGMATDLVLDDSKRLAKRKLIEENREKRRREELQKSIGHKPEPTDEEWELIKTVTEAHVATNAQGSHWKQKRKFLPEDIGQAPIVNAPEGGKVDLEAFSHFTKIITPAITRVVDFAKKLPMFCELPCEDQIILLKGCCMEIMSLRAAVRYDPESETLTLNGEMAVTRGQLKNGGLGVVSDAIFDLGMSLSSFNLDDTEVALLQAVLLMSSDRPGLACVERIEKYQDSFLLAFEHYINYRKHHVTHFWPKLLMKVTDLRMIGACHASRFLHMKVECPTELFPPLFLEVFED

biological target: Thyroid hormone receptor beta (Homo sapiens) (UniProt P10828); assay: qHTS for Inhibitors of the Interaction of Thyroid Hormone Receptor and Steroid Receptor Coregulator 2; conditions: TRbeta-SRC2 peptide binding, fluorescence polarization, receptor liganded with 1 µM T3; series mostly up to 106 µM; further: nearly all actives have a fitted effect of over 50% in size
Outline: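 Fluorescence polarization of 20 nM Texas Red SRC2 peptide with 0.6 uM human TRb ligand-binding domain, in Tris buffer with 1uM T3 and 5% DMSO. Incubated 5 hr ambient; normalized to unbound and bound controls.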
Potency means the concentration at half of the fitted maximal effect.

Row | Structure (SMILES) | Potency
1 | CCOc1ccc2[nH]c(=O)c(C(c3nnnn3Cc3ccco3)N3CCN(C)CC3)cc2c1 (stereo unspecified) | inconclusive: 3.16 µM [inhibitor, full curve]
2 | O=C(Nc1ccc(C(=O)Nc2ccc(C(=O)Nc3ccc(S(=O)(=O)O)c4cc(S(=O)(=O)O)cc(S(=O)(=O)O)c34)cc2)cc1)Nc1ccc(C(=O)Nc2ccc(C(=O)Nc3ccc(S(=O)(=O)O)c4cc(S(=O)(=O)O)cc(S(=O)(=O)O)c34)cc2)cc1 | inconclusive: 39.8 µM [activator, partial curve] and inconclusive: 25.1 µM [activator, partial curve]
3 | CCOc1ccc(CCNC(=O)c2cnc3c(-c4ccc(F)cc4)c(C)nn3c2C)cc1OCC | inconclusive: 35.5 µM [inhibitor, single point]
4 | COc1cc(NS(=O)(=O)c2ccc(NC(=O)/C(=C/c3ccccc3Cl)NC(=O)c3ccccc3)cc2)nc(OC)n1 | inconclusive: 50.1 µM [activator, partial curve, poor fit]
5 | CC1=NN(C(N)=S)C(=O)C1N=Nc1cccc(C)c1 (stereo unspecified) | inactive
6 | N=c1n(CCN2CCOCC2)c2ccccc2n1CC(=O)c1ccc(Cl)c(Cl)c1 | inactive
7 | NC(C(=O)O)c1ccc(P(=O)(O)O)cc1 (stereo unspecified) | inactive
8 | C#CCN1C(=O)S/C(=C/C=C/c2ccc(N(C)C)cc2)C1=O | inconclusive: 3.55 µM [activator, full curve]
9 | CCC(=O)N1CCN(c2ccc(NC(=O)c3cc4ccccc4o3)cc2)CC1 | inactive
10 | O=C(O)CSc1cc(C(=O)c2ccccc2O)cn2c(=O)c3c(-c4ccccc4)csc3nc12 | inactive
11 | CC1(C)C(=O)NC2=C1C(=O)C(=O)c1ccccc12 | inconclusive: 3.16 µM [inhibitor, full curve] and inconclusive: 1.12 µM [inhibitor, full curve]
12 | CCOc1ccc(-c2noc(CSc3nnc(-c4ccccc4)n3-c3ccccc3)n2)cc1 | inconclusive: 70.8 µM [inhibitor, single point]
13 | CCn1c(CSc2nnc3ccccn23)nc2cc(C(=O)O)ccc21 | active: 7.94 µM
14 | COc1ccccc1OCCn1c(C(C)Oc2ccccc2)nc2ccccc21 (stereo unspecified) | inactive
15 | CCCCc1nc(NCCNC(=O)c2ccco2)c(C#N)c2c1CSC(C)(C)C2 | inconclusive: 79.4 µM [inhibitor, partial curve, poor fit]
16 | CCOC(=O)c1nc2cc3n(c(CC(C)C)c-2c1C)CC(C)=C3C | inconclusive: 44.7 µM [inhibitor, partial curve]
17 | Cc1cc(C)cc(Nc2ccc(C(=O)O)cc2N)c1 | inconclusive: 100 µM [inhibitor, partial curve, poor fit]
18 | Cc1ccc(-c2nc(SCC(=O)Nc3ccccc3OC(F)F)c3c(C)c(C(=O)O)sc3n2)cc1 | inconclusive: 31.6 µM [activator, single point]
19 | O=C1OC2(c3cc(Br)c(O)c(Br)c3Oc3c2cc(Br)c(O)c3Br)c2c(Cl)c(Cl)c(Cl)c(Cl)c21 | active: 2.51 µM
20 | Nc1nc(SCC(=O)C23CC4CC(CC(C4)C2)C3)n[nH]1 | inactive
21 | COc1ccc(CNC(=O)COC(=O)Cc2ccc(Cl)cc2Cl)cc1 | inconclusive: 4.47 µM [inhibitor, partial curve]
22 | COCCNC(=O)c1c(N)sc2c1CCCC2 | inconclusive: 79.4 µM [inhibitor, partial curve, poor fit]
23 | CC(C)(C)C1=CC(=Nc2ccccc2N)C=C(C(C)(C)C)C1=O | inactive

Molecules from the list above that have a thiophene ring, fused or not, in the order listed:
Row | Structure (SMILES) | Potency
10 | O=C(O)CSc1cc(C(=O)c2ccccc2O)cn2c(=O)c3c(-c4ccccc4)csc3nc12 | inactive
18 | Cc1ccc(-c2nc(SCC(=O)Nc3ccccc3OC(F)F)c3c(C)c(C(=O)O)sc3n2)cc1 | inconclusive: 31.6 µM [activator, single point]
22 | COCCNC(=O)c1c(N)sc2c1CCCC2 | inconclusive: 79.4 µM [inhibitor, partial curve, poor fit]

The results go on.

Row | Structure (SMILES) | Potency
24 | CCn1c(CSc2nnc(-c3ccncc3)n2C)nc2cc(C(=O)O)ccc21 | active: 39.8 µM
25 | COc1ccc2c(c1)-c1c(sn(-c3ccc(OC)c(OC)c3)c1=S)C(C)(C)N2 | inactive
26 | COc1ccc(/C=C/C(=O)CC(=O)/C=C/c2cccc(O)c2OC)cc1O | inconclusive: 50.1 µM [activator, partial curve]
27 | CN(Cc1ccccc1)c1ccc(-c2nc(-c3ccccn3)no2)cc1[N+](=O)[O-] | inactive
28 | C=CCn1c(N)c(C(=O)OC(C)(C)C)c2nc3ccccc3nc21 | inconclusive: 44.7 µM [inhibitor, partial curve]
29 | Oc1ccccc1CNc1cccc2cccnc12 | inactive
30 | CNC(=O)C1(C(F)(F)F)CC(CCCO)CCCO1 (stereo unspecified) | inactive
31 | CCc1c(C)nc(SCc2nc(-c3ccccc3)no2)[nH]c1=O | inactive
33 | COc1ccc(C2C(C(=O)c3sc(C)nc3C)=C(O)C(=O)N2CCN(C)C)cc1 (stereo unspecified) | inactive
34 | CC1(C)C(N(O)C(=O)Nc2ccc(Cl)cc2)N(c2ccc(Cl)cc2)C(=O)N1CC(=O)NN (stereo unspecified) | inconclusive: 39.8 µM [inhibitor, partial curve]
35 | C=CCNC(=O)c1c2c(nc3ccccc13)-c1ccccc1CC2 | inactive
36 | COc1ccc(CNC(=O)c2cc(-c3cccs3)nc3ccccc23)c(OC)c1 | inactive
37 | COc1ccc(S(=O)(=O)NN(C)C(=O)c2nn(-c3ccccc3)ccc2=O)cc1 | inactive
38 | O=C(Nc1ccc(F)cc1)Nc1nnc(COc2ccccc2F)s1 | inactive
39 | COc1c(O)c(O)c2cc(OC)c3c(OC)cc(=O)c4c5c(=O)c(OC)c(C(C)=O)c6c5c(c1CC=6C)c2c34 | inconclusive: 44.7 µM [inhibitor, partial curve]
40 | CCCCCCn1c(=O)[nH]c2nc3cc(N)c(C)cc3nc2c1=O | inactive
41 | CCCCOCC(C)O (stereo unspecified) | inactive
42 | Cc1ccc(C=Nc2ccc(N(C)C)cc2)o1 | inconclusive: 44.7 µM [inhibitor, partial curve]
43 | CCOC(=O)CNC(=O)CNC(=O)Cn1ccc2ccccc2c1=O | inconclusive: 79.4 µM [inhibitor, single point]
44 | O=C(OCc1ccco1)c1ccc2c(c1)N(Cc1ccc([N+](=O)[O-])cc1)C(=O)c1ccccc1S2 | inconclusive: 79.4 µM [inhibitor, single point]
45 | CCn1cnc2cc(NCc3ccc(N(C)C)cc3)ccc21 | inactive
46 | CCOc1ccc(C(=O)Nc2cc(-c3nc4ccccc4[nH]3)ccc2Cl)cc1[N+](=O)[O-] | inconclusive: 50.1 µM [activator, partial curve, poor fit]
